Source: the supplement of paper PMC12595434, “Development of retinoid nuclear receptor pathway antagonists through targeting aldehyde dehydrogenase 1A3” (iScience, 2025)
Some of the results follow. Single values of this set are uncertain.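 Tm was set to 64 °C where no melting was found, and many curves are irregular.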

Amino acid sequences for entries named in this document (tags omitted). A change or cut given only in a name is not applied to a line headed by its entry.
UniProt Q86WR0: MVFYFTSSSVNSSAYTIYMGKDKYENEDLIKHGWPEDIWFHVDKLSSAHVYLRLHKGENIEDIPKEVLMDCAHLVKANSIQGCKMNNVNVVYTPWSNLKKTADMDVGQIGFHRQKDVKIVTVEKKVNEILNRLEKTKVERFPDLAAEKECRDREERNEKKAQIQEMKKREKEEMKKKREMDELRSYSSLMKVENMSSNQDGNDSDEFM
UniProt Q8IWC1: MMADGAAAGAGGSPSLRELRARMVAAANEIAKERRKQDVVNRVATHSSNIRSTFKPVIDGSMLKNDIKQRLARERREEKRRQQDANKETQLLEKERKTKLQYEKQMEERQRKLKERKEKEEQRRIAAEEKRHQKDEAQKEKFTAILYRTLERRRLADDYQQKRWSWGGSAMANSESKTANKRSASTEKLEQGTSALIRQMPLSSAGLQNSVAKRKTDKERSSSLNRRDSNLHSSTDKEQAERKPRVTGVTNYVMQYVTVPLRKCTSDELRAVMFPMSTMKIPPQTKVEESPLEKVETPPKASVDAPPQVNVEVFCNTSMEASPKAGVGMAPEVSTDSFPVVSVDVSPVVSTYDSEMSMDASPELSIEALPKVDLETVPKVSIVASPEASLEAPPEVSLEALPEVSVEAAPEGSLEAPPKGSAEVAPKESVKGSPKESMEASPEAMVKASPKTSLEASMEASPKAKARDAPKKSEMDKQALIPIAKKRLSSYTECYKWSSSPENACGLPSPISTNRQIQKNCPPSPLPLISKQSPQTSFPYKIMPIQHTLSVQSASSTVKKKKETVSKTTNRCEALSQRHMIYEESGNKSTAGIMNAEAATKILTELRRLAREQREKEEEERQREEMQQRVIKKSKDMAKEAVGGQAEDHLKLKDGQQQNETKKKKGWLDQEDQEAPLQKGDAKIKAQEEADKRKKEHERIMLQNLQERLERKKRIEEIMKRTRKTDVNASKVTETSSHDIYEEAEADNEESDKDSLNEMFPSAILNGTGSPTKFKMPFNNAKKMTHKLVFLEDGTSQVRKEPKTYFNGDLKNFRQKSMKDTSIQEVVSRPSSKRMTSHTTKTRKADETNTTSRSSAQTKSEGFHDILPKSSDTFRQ
UniProt Q8IUX1: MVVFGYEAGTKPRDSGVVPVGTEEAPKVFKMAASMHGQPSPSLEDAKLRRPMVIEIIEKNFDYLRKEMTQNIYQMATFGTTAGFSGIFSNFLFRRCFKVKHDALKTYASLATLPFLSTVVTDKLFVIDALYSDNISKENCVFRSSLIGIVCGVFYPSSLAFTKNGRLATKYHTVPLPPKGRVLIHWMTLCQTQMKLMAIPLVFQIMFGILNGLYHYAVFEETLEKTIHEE
UniProt Q8IYA6: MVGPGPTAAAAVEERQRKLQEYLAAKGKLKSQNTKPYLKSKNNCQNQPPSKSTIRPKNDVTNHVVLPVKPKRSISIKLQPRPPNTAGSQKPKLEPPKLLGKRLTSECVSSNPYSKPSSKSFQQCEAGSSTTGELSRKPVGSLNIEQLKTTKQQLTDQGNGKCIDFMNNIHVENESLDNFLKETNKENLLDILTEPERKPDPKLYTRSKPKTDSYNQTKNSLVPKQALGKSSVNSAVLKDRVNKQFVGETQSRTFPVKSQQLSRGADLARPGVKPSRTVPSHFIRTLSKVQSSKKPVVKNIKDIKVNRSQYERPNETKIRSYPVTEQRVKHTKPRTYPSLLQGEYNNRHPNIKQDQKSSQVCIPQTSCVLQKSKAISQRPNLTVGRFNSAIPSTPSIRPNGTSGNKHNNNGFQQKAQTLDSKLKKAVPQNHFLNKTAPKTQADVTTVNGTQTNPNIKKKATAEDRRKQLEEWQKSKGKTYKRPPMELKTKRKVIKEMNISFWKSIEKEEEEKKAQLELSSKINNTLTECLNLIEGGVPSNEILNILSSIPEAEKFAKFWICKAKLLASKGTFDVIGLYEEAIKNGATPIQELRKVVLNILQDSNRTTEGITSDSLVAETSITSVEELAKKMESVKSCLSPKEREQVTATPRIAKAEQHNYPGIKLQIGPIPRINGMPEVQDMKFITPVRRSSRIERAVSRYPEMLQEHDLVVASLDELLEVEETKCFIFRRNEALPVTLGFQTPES
UniProt Q8IWA4: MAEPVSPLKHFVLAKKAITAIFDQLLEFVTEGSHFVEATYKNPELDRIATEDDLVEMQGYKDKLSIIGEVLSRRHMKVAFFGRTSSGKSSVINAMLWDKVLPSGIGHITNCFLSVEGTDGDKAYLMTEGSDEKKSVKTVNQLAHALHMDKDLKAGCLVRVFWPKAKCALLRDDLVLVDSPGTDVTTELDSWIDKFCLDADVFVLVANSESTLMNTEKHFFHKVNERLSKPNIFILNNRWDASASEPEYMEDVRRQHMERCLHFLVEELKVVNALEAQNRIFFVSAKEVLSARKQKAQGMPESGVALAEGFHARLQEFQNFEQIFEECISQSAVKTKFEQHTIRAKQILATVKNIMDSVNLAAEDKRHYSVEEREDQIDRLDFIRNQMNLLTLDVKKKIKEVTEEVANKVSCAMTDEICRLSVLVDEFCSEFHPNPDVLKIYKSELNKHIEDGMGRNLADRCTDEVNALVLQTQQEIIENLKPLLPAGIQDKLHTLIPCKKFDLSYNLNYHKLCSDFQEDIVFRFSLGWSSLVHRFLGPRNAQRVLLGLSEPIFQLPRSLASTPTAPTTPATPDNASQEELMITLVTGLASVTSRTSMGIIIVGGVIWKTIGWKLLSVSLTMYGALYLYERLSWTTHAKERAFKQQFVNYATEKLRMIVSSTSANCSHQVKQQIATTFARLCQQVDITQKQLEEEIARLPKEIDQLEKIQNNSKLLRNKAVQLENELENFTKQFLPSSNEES
UniProt Q8N4C6: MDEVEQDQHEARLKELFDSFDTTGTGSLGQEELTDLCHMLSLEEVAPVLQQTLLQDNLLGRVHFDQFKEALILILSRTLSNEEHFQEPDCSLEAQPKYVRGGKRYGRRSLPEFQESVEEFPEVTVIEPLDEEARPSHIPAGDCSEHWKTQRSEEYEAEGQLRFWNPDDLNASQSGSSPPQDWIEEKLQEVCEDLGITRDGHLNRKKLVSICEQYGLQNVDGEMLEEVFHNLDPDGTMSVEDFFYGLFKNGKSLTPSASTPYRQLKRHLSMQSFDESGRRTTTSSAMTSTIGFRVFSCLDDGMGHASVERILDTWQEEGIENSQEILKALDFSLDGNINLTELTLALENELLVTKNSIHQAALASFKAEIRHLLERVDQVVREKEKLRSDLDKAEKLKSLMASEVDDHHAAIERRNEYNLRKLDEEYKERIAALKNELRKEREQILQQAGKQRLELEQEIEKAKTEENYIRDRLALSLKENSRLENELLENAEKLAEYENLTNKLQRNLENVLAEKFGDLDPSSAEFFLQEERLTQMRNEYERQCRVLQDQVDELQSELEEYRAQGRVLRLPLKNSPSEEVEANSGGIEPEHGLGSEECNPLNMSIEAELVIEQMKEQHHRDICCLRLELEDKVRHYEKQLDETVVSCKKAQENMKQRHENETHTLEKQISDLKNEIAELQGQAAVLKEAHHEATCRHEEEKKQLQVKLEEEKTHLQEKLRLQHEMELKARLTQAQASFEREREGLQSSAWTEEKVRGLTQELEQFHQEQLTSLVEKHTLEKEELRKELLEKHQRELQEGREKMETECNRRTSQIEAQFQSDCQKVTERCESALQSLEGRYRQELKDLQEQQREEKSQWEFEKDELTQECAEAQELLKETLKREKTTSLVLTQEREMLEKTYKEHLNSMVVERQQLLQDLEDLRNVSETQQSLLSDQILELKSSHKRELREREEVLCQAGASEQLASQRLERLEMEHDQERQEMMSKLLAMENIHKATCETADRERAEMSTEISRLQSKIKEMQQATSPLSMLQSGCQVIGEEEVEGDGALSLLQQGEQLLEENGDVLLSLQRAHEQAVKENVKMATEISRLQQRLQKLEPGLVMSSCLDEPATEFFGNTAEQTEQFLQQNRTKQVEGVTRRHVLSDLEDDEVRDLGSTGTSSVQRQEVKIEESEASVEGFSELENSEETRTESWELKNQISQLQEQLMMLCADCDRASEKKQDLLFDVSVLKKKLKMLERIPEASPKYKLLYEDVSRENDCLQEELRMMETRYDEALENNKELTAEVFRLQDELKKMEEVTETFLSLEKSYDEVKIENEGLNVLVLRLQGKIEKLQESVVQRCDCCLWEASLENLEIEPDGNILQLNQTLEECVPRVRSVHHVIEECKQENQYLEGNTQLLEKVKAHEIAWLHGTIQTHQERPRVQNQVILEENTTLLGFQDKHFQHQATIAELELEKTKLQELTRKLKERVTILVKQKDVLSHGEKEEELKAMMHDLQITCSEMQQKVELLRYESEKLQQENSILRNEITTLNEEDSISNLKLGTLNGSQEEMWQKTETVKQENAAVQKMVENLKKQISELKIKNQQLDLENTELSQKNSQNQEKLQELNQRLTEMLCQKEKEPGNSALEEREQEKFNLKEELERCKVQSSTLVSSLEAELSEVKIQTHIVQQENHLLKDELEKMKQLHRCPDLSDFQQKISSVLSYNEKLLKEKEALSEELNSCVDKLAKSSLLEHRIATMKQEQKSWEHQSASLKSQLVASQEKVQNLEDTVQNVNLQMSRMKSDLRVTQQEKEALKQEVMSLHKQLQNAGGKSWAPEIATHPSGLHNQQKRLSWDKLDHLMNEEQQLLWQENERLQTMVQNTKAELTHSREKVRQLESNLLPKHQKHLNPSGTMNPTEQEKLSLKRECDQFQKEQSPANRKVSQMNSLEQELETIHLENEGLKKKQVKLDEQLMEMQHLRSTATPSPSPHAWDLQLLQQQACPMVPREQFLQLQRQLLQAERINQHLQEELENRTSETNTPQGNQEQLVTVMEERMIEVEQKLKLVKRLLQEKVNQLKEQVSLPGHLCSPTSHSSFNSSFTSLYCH
UniProt Q8IWY9: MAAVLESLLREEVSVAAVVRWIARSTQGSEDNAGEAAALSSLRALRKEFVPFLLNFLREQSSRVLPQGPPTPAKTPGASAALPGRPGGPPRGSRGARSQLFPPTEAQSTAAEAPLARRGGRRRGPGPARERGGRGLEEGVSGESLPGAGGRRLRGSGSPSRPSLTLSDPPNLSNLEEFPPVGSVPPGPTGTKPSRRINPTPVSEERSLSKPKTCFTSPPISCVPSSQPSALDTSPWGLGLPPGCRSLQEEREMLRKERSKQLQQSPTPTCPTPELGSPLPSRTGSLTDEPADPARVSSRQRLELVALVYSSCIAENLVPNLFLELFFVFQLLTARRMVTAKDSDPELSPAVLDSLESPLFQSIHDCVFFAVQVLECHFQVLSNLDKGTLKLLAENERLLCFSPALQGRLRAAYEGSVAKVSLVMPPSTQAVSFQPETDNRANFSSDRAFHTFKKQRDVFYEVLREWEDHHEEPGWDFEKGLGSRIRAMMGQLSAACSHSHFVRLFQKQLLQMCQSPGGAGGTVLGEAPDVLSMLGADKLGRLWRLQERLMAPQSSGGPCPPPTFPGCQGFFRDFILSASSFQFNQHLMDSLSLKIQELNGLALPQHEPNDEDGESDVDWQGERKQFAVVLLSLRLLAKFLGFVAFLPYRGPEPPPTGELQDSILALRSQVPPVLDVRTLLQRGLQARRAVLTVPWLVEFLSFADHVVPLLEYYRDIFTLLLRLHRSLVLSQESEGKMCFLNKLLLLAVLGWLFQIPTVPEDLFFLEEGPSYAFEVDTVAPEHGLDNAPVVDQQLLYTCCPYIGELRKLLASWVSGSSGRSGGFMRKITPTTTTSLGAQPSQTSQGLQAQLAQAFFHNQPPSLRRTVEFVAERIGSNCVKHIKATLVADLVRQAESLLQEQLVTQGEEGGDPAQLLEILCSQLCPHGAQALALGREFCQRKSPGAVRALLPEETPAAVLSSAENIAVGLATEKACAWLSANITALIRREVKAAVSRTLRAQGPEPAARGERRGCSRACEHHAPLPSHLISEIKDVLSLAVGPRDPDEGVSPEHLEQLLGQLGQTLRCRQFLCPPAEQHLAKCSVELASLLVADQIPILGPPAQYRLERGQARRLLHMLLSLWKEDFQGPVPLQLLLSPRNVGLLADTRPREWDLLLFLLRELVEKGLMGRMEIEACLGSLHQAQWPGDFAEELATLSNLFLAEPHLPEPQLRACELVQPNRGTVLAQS
UniProt Q8IVS2: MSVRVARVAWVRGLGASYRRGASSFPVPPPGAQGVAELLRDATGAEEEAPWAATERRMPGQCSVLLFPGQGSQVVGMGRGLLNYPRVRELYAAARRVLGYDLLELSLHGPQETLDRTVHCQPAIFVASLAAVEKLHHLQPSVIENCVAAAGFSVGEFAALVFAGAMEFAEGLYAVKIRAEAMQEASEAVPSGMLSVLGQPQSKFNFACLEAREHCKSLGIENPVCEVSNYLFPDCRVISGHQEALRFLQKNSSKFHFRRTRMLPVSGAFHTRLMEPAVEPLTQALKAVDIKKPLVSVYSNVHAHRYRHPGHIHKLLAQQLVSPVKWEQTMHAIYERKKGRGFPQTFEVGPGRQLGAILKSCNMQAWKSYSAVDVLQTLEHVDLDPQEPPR

Compound: CCc1cnccc1C(=O)Nc1cc2c(cc1F)NC(=O)CC2
Assay: melting temperature shift (DMSO Tm minus MBE1-treated Tm) in cellular thermal proteome profiling; higher = less thermal stabilization by MBE1 (negative = stabilized by MBE1)
Details: A375

## SPATS2 (UniProt Q86XZ4)
MBE1 concentration: 100 nM
  melting temperature shift: 0.0855 °C
MBE1 concentration: 1 uM
  melting temperature shift: -0.0122 °C

## CCDC25 (UniProt Q86WR0)
MBE1 concentration: 100 nM
  melting temperature shift: 0.586 °C
MBE1 concentration: 1 uM
  melting temperature shift: 0.684 °C

## ATPAF2 (UniProt Q8N5M1)
MBE1 concentration: 100 nM
  melting temperature shift: -0.894 °C
MBE1 concentration: 1 uM
  melting temperature shift: -0.33 °C

## PLD3 (UniProt Q8IV08)
MBE1 concentration: 100 nM
  melting temperature shift: -2.5 °C
MBE1 concentration: 1 uM
  melting temperature shift: 0.159 °C

## SMYD4 (UniProt Q8IYR2)
MBE1 concentration: 100 nM
  melting temperature shift: -0.457 °C
MBE1 concentration: 1 uM
  melting temperature shift: -0.154 °C

## UniProt Q8IWT3
MBE1 concentration: 100 nM
  melting temperature shift: 1.04 °C
MBE1 concentration: 1 uM
  melting temperature shift: 0.562 °C

## UniProt Q86YB8
MBE1 concentration: 100 nM
  melting temperature shift: -0.53 °C
MBE1 concentration: 1 uM
  melting temperature shift: -0.583 °C

## PHF6 (UniProt Q8IWS0)
MBE1 concentration: 100 nM
  melting temperature shift: -0.442 °C
MBE1 concentration: 1 uM
  melting temperature shift: -1.5 °C

## MAP7D3 (UniProt Q8IWC1)
MBE1 concentration: 100 nM
  melting temperature shift: 0.299 °C
MBE1 concentration: 1 uM
  melting temperature shift: 0.235 °C

## CPNE8 (UniProt Q86YQ8)
MBE1 concentration: 100 nM
  melting temperature shift: -0.507 °C
MBE1 concentration: 1 uM
  melting temperature shift: 0.186 °C

## MAPKAPK5 (UniProt Q8IW41)
MBE1 concentration: 100 nM
  melting temperature shift: 0.335 °C
MBE1 concentration: 1 uM
  melting temperature shift: 0.0611 °C

## PELP1 (UniProt Q8IZL8)
MBE1 concentration: 100 nM
  melting temperature shift: -1.31 °C
MBE1 concentration: 1 uM
  melting temperature shift: -1.64 °C

## UniProt Q8N8J7
MBE1 concentration: 100 nM
  melting temperature shift: -0.635 °C
MBE1 concentration: 1 uM
  melting temperature shift: -0.501 °C

## GCC2 (UniProt Q8IWJ2)
MBE1 concentration: 100 nM
  melting temperature shift: -1.32 °C
MBE1 concentration: 1 uM
  melting temperature shift: -0.433 °C

## TTC5 (UniProt Q8N0Z6)
MBE1 concentration: 100 nM
  melting temperature shift: -1.11 °C
MBE1 concentration: 1 uM
  melting temperature shift: -0.452 °C

## TMEM126B (UniProt Q8IUX1)
MBE1 concentration: 100 nM
  melting temperature shift: -1.11 °C
MBE1 concentration: 1 uM
  melting temperature shift: 0.248 °C

## UniProt Q8IY26
MBE1 concentration: 100 nM
  melting temperature shift: -0.588 °C
MBE1 concentration: 1 uM
  melting temperature shift: -0.0122 °C

## UniProt Q8IYA6
MBE1 concentration: 100 nM
  melting temperature shift: -0.916 °C
MBE1 concentration: 1 uM
  melting temperature shift: -1.24 °C

## COMMD2 (UniProt Q86X83)
MBE1 concentration: 100 nM
  melting temperature shift: 0.592 °C
MBE1 concentration: 1 uM
  melting temperature shift: 0.22 °C

## ERI1 (UniProt Q8IV48)
MBE1 concentration: 100 nM
  melting temperature shift: -2.03 °C
MBE1 concentration: 1 uM
  melting temperature shift: 2.02 °C

## ARHGAP18 (UniProt Q8N392)
MBE1 concentration: 100 nM
  melting temperature shift: -0.47 °C
MBE1 concentration: 1 uM
  melting temperature shift: -0.39 °C

## PM20D2 (UniProt Q8IYS1)
MBE1 concentration: 100 nM
  melting temperature shift: -1.73 °C
MBE1 concentration: 1 uM
  melting temperature shift: 0.556 °C

## UniProt Q8N1I0
MBE1 concentration: 100 nM
  melting temperature shift: -0.789 °C
MBE1 concentration: 1 uM
  melting temperature shift: -0.591 °C

## GPD1L (UniProt Q8N335)
MBE1 concentration: 100 nM
  melting temperature shift: 0.402 °C
MBE1 concentration: 1 uM
  melting temperature shift: 1.26 °C

## CRLF3 (UniProt Q8IUI8)
MBE1 concentration: 100 nM
  melting temperature shift: 0.0188 °C
MBE1 concentration: 1 uM
  melting temperature shift: -0.0183 °C

## DNAAF5 (UniProt Q86Y56)
MBE1 concentration: 100 nM
  melting temperature shift: -0.57 °C
MBE1 concentration: 1 uM
  melting temperature shift: -0.0897 °C

## METTL16 (UniProt Q86W50)
MBE1 concentration: 100 nM
  melting temperature shift: 0.366 °C
MBE1 concentration: 1 uM
  melting temperature shift: 0.33 °C

## ITPRIP (UniProt Q8IWB1)
MBE1 concentration: 100 nM
  melting temperature shift: 1.14 °C
MBE1 concentration: 1 uM
  melting temperature shift: 0.977 °C

## MFN1 (UniProt Q8IWA4)
MBE1 concentration: 100 nM
  melting temperature shift: 0.391 °C
MBE1 concentration: 1 uM
  melting temperature shift: -0.537 °C

## ABI1 (UniProt Q8IZP0)
MBE1 concentration: 100 nM
  melting temperature shift: 0.672 °C
MBE1 concentration: 1 uM
  melting temperature shift: -0.0855 °C

## GSPT2 (UniProt Q8IYD1)
MBE1 concentration: 100 nM
  melting temperature shift: -0.402 °C
MBE1 concentration: 1 uM
  melting temperature shift: 0.717 °C

## UniProt Q8N4C6
MBE1 concentration: 100 nM
  melting temperature shift: 0.721 °C
MBE1 concentration: 1 uM
  melting temperature shift: 3.82 °C

## NUDCD3 (UniProt Q8IVD9)
MBE1 concentration: 100 nM
  melting temperature shift: -0.16 °C
MBE1 concentration: 1 uM
  melting temperature shift: -0.329 °C

## FAM177A1 (UniProt Q8N128)
MBE1 concentration: 100 nM
  melting temperature shift: -1.74 °C
MBE1 concentration: 1 uM
  melting temperature shift: 2.59 °C

## RYBP (UniProt Q8N488)
MBE1 concentration: 100 nM
  melting temperature shift: -1.42 °C
MBE1 concentration: 1 uM
  melting temperature shift: 0.0134 °C

## CDAN1 (UniProt Q8IWY9)
MBE1 concentration: 100 nM
  melting temperature shift: 0.647 °C
MBE1 concentration: 1 uM
  melting temperature shift: 0.598 °C

## PPFIBP1 (UniProt Q86W92)
MBE1 concentration: 100 nM
  melting temperature shift: -0.814 °C
MBE1 concentration: 1 uM
  melting temperature shift: -0.306 °C

## FUK (UniProt Q8N0W3)
MBE1 concentration: 100 nM
  melting temperature shift: -1.5 °C
MBE1 concentration: 1 uM
  melting temperature shift: -1.54 °C

## UniProt Q86XP1
MBE1 concentration: 100 nM
  melting temperature shift: -0.08 °C
MBE1 concentration: 1 uM
  melting temperature shift: 0.414 °C

## AMZ2 (UniProt Q86W34)
MBE1 concentration: 100 nM
  melting temperature shift: -0.71 °C
MBE1 concentration: 1 uM
  melting temperature shift: -1.13 °C

## KBTBD2 (UniProt Q8IY47)
MBE1 concentration: 100 nM
  melting temperature shift: -0.383 °C
MBE1 concentration: 1 uM
  melting temperature shift: -0.221 °C

## CCAR2 (UniProt Q8N163)
MBE1 concentration: 100 nM
  melting temperature shift: -0.405 °C
MBE1 concentration: 1 uM
  melting temperature shift: -0.527 °C

## UniProt Q8N442
MBE1 concentration: 100 nM
  melting temperature shift: 0.875 °C
MBE1 concentration: 1 uM
  melting temperature shift: 0.593 °C

## MMAA (UniProt Q8IVH4)
MBE1 concentration: 100 nM
  melting temperature shift: 0.919 °C
MBE1 concentration: 1 uM
  melting temperature shift: 1.48 °C

## UniProt Q8N612
MBE1 concentration: 100 nM
  melting temperature shift: 0.171 °C
MBE1 concentration: 1 uM
  melting temperature shift: 0.653 °C

## LZTR1 (UniProt Q8N653)
MBE1 concentration: 100 nM
  melting temperature shift: -0.509 °C
MBE1 concentration: 1 uM
  melting temperature shift: -0.0705 °C

## ANKHD1 (UniProt Q8IWZ3)
MBE1 concentration: 100 nM
  melting temperature shift: -1.07 °C
MBE1 concentration: 1 uM
  melting temperature shift: -0.0256 °C

## AHNAK2 (UniProt Q8IVF2)
MBE1 concentration: 100 nM
  melting temperature shift: 0.0604 °C
MBE1 concentration: 1 uM
  melting temperature shift: 0.858 °C

## UniProt Q8N0S6
MBE1 concentration: 100 nM
  melting temperature shift: -1.62 °C
MBE1 concentration: 1 uM
  melting temperature shift: 0.675 °C

## HOMER1 (UniProt Q86YM7)
MBE1 concentration: 100 nM
  melting temperature shift: 0.812 °C
MBE1 concentration: 1 uM
  melting temperature shift: 1.17 °C

## ABHD12 (UniProt Q8N2K0)
MBE1 concentration: 100 nM
  melting temperature shift: -0.912 °C
MBE1 concentration: 1 uM
  melting temperature shift: 0.371 °C

## TTC39C (UniProt Q8N584)
MBE1 concentration: 100 nM
  melting temperature shift: -1.05 °C
MBE1 concentration: 1 uM
  melting temperature shift: 0.263 °C

## GPBP1 (UniProt Q86WP2)
MBE1 concentration: 100 nM
  melting temperature shift: 0 °C
MBE1 concentration: 1 uM
  melting temperature shift: -5.03 °C

## RALGAPB (UniProt Q86X10)
MBE1 concentration: 100 nM
  melting temperature shift: 0.0847 °C
MBE1 concentration: 1 uM
  melting temperature shift: 0.348 °C

## UniProt Q8IYK4
MBE1 concentration: 100 nM
  melting temperature shift: -1.13 °C
MBE1 concentration: 1 uM
  melting temperature shift: -1.31 °C

## ZC3HC1 (UniProt Q86WB0)
MBE1 concentration: 100 nM
  melting temperature shift: -0.734 °C
MBE1 concentration: 1 uM
  melting temperature shift: -0.576 °C

## UniProt Q8IVS2
MBE1 concentration: 100 nM
  melting temperature shift: -0.268 °C
MBE1 concentration: 1 uM
  melting temperature shift: 0.923 °C

## TRMT2A (UniProt Q8IZ69)
MBE1 concentration: 100 nM
  melting temperature shift: -0.721 °C
MBE1 concentration: 1 uM
  melting temperature shift: 0.0769 °C

## MB21D2 (UniProt Q8IYB1)
MBE1 concentration: 100 nM
  melting temperature shift: 0.647 °C
MBE1 concentration: 1 uM
  melting temperature shift: 2.23 °C

## HDDC3 (UniProt Q8N4P3)
MBE1 concentration: 100 nM
  melting temperature shift: -1.5 °C
MBE1 concentration: 1 uM
  melting temperature shift: -0.871 °C

## RPUSD2 (UniProt Q8IZ73)
MBE1 concentration: 100 nM
  melting temperature shift: -0.757 °C
MBE1 concentration: 1 uM
  melting temperature shift: -0.763 °C

## KIAA0319L (UniProt Q8IZA0)
MBE1 concentration: 100 nM
  melting temperature shift: -3.41 °C
MBE1 concentration: 1 uM
  melting temperature shift: -1.61 °C

## PAF1 (UniProt Q8N7H5)
MBE1 concentration: 100 nM
  melting temperature shift: -0.032 °C
MBE1 concentration: 1 uM
  melting temperature shift: -0.115 °C

## FAM114A1 (UniProt Q8IWE2)
MBE1 concentration: 100 nM
  melting temperature shift: -0.782 °C
MBE1 concentration: 1 uM
  melting temperature shift: 0.214 °C

## SUGP1 (UniProt Q8IWZ8)
MBE1 concentration: 100 nM
  melting temperature shift: -0.353 °C
MBE1 concentration: 1 uM
  melting temperature shift: -0.786 °C

## FAM134C (UniProt Q86VR2)
MBE1 concentration: 100 nM
  melting temperature shift: -1.64 °C
MBE1 concentration: 1 uM
  melting temperature shift: 1.19 °C

## UniProt Q8N157
MBE1 concentration: 100 nM
  melting temperature shift: -3.71 °C
MBE1 concentration: 1 uM
  melting temperature shift: 1.23 °C

## TMEM192 (UniProt Q8IY95)
MBE1 concentration: 100 nM
  melting temperature shift: -2.66 °C
MBE1 concentration: 1 uM
  melting temperature shift: -0.148 °C
